Article PMC7246916, “14-3-3 Proteins and Other Candidates form Protein-Protein Interactions with the Cytosolic C-terminal End of SOS1 Affecting Its Transport Activity” (International Journal of Molecular Sciences, 2020)
Results are given in words; binding and its absence hold for the method and conditions named. Binding seen in cells or lysates may run through a third protein. Here binding means that the protein was enriched with, or labelled near, the bait; the list need not be complete. Tags and fused reporters may be left off the sequences shown. Values belong to the molecule of their own block, whether it stands above or below them.

By UniProt entry, the sequences of proteins in these tests, tags left out.
UniProt P23686: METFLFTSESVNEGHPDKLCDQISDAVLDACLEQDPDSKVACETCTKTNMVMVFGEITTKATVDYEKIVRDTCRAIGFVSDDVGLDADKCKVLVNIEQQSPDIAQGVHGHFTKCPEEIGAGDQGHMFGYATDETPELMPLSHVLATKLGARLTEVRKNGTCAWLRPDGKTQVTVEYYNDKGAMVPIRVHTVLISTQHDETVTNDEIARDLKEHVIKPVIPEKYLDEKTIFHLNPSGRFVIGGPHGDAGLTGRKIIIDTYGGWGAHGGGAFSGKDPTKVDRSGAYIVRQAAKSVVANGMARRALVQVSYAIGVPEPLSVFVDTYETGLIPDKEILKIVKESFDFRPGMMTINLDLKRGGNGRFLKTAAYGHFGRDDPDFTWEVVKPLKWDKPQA
UniProt P25696: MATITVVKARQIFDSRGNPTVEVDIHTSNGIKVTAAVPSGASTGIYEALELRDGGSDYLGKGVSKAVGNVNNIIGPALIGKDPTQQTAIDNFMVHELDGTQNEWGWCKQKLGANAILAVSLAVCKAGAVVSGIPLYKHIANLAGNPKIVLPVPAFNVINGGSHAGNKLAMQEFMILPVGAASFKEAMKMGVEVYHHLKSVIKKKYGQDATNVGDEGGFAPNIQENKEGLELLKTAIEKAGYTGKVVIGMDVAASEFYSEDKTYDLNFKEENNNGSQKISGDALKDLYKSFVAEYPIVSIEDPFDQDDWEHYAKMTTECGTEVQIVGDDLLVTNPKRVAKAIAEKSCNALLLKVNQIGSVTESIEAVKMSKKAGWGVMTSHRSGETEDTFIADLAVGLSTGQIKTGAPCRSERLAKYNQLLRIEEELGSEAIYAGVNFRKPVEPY

Target: T1, GST-tagged AtSOS1 C-terminus (aa978-1146) (Arabidopsis thaliana) (UniProt Q9LKW9)
T1 sequence: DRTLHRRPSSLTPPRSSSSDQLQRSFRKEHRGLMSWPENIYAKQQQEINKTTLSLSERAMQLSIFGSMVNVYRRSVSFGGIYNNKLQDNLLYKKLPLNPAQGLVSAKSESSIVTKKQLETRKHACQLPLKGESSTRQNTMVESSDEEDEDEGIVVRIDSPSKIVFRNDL
Assay: affinity purification with mass spectrometry; purified GST-SOS1 C-term (aa978-1146) coupled to Affi-gel10, incubated with a soluble protein extract from Arabidopsis leaves; washed with PBS, eluted with PBS containing 1% SDS, SDS-PAGE slices identified by mass spectrometry; GST alone as control column; only the target purified

Molecule: S-adenosylmethionine synthase1 (from UniProt P23686 1-393) (enzyme)
binding: binds

B1: 14-3-3 like protein isoform omega (ω) (protein, UniProt Q01525 1-259)
chain: MASGREEFVYMAKLAEQAERYEEMVEFMEKVSAAVDGDELTVEERNLLSVAYKNVIGARRASWRIISSIEQKEESRGNDDHVTAIREYRSKIETELSGICDGILKLLDSRLIPAAASGDSKVFYLKMKGDYHRYLAEFKTGQERKDAAEHTLAAYKSAQDIANAELAPTHPIRLGLALNFSVFYYEILNSPDRACNLAKQAFDEAIAELDTLGEESYKDSTLIMQLLRDNLTLWTSDMQDDAADEIKEAAAPKPTEEQQ
binding: binds

B3: 14-3-3 like protein isoform phi (φ) (protein, UniProt P46077 1-267)
chain: MAAPPASSSAREEFVYLAKLAEQAERYEEMVEFMEKVAEAVDKDELTVEERNLLSVAYKNVIGARRASWRIISSIEQKEESRGNDDHVTTIRDYRSKIESELSKICDGILKLLDTRLVPASANGDSKVFYLKMKGDYHRYLAEFKTGQERKDAAEHTLTAYKAAQDIANAELAPTHPIRLGLALNFSVFYYEILNSPDRACNLAKQAFDEAIAELDTLGEESYKDSTLIMQLLRDNLTLWTSDMQDESPEEIKEAAAPKPAEEQKEI
binding: binds

B4: 14-3-3 like protein isoform kappa (κ) (protein, UniProt P48348 1-248)
chain: MATTLSRDQYVYMAKLAEQAERYEEMVQFMEQLVSGATPAGELTVEERNLLSVAYKNVIGSLRAAWRIVSSIEQKEESRKNEEHVSLVKDYRSKVETELSSICSGILRLLDSHLIPSATASESKVFYLKMKGDYHRYLAEFKSGDERKTAAEDTMIAYKAAQDVAVADLAPTHPIRLGLALNFSVFYYEILNSSEKACSMAKQAFEEAIAELDTLGEESYKDSTLIMQLLRDNLTLWTSDMQEQMDEA
binding: binds

B5: 14-3-3 like protein isoform upsilon (υ) (protein, UniProt P42645 1-268)
chain: MSSDSSREENVYLAKLAEQAERYEEMVEFMEKVAKTVETEELTVEERNLLSVAYKNVIGARRASWRIISSIEQKEDSRGNSDHVSIIKDYRGKIETELSKICDGILNLLEAHLIPAASLAESKVFYLKMKGDYHRYLAEFKTGAERKEAAESTLVAYKSAQDIALADLAPTHPIRLGLALNFSVFYYEILNSSDRACSLAKQAFDEAISELDTLGEESYKDSTLIMQLLRDNLTLWTSDLNDEAGDDIKEAPKEVQKVDEQAQPPPSQ
binding: binds

Now from value to molecule:

binding: binds
Molecule: delta-1-pyrroline-5-carboxylate synthase (P5CS) (enzyme)

binding: binds
Molecule: enolase2 (from UniProt P25696 1-444) (enzyme)

binding: binds
B2: adenosyl-homocysteinease2 (enzyme, UniProt Q9LK36 1-485)
chain: MALLVEKTSSGREYKVKDMSQADFGRLEIELAEVEMPGLVSCVTEFGPSQPLKGARITGSLHMTIQTAVLIETLTALGAEVRWCSCNIFSTQDHAAAAIARDSAAVFAWKGETLQEYWWCTERALDWGPGGGPDLIVDDGGDATLLIHEGVKAEEIFAKNGTFPDPTSTDNPEFQIVLSIIKDGLQVDPKKYHKMKERLVGVSEETTTGVKRLYQMQETGALLFPAINVNDSVTKSKFDNLYGCRHSLPDGLMRATDVMIAGKVAVICGYGDVGKGCAAAMKTAGARVIVTEIDPICALQALMEGLQVLTLEDVVSEADIFCTTTGNKDIIMVDHMRKMKNNAIVCNIGHFDNEIDMLGLETYPGVKRITIKPQTDRWVFPDTNSGIIVLAEGRLMNLGCATGHPSFVMSCSFTNQVIAQLELWNEKSSGKYEKKVYVLPKHLDEKVAALHLGKLGARLTKLTKDQSDYVSIPVEGPYKPVHYRY
